# The supplement of paper PMC12823440, “Inhibitors supercharge kinase turnover through native proteolytic circuits” (Nature, 2025)
# The chains behind the UniProt entries cited, without tags or fusion partners. Where a name states a change or a piece, a line headed by the entry shows the natural chain unless it says otherwise.
# UniProt Q16288, whole entry, looked up: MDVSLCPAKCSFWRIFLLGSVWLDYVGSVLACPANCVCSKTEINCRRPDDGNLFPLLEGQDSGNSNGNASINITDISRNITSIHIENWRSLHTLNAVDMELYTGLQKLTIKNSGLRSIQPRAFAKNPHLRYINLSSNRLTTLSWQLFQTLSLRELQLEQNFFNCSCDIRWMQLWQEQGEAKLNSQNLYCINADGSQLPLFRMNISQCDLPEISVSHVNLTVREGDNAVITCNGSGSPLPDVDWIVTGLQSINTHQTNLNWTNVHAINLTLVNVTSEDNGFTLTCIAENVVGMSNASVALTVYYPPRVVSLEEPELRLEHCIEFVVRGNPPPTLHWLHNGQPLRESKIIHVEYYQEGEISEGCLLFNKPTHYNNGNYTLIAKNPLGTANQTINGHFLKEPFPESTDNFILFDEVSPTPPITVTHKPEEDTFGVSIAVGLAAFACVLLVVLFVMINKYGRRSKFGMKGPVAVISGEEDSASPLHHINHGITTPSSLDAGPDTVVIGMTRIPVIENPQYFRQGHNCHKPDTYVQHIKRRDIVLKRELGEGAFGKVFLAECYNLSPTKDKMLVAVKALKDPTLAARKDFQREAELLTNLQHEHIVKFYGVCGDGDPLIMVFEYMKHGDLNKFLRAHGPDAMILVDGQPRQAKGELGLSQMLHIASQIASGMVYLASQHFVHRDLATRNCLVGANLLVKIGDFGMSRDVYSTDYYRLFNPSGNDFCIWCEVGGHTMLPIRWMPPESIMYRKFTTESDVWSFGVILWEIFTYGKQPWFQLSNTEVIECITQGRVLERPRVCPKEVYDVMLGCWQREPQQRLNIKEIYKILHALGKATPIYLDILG
# UniProt O96013: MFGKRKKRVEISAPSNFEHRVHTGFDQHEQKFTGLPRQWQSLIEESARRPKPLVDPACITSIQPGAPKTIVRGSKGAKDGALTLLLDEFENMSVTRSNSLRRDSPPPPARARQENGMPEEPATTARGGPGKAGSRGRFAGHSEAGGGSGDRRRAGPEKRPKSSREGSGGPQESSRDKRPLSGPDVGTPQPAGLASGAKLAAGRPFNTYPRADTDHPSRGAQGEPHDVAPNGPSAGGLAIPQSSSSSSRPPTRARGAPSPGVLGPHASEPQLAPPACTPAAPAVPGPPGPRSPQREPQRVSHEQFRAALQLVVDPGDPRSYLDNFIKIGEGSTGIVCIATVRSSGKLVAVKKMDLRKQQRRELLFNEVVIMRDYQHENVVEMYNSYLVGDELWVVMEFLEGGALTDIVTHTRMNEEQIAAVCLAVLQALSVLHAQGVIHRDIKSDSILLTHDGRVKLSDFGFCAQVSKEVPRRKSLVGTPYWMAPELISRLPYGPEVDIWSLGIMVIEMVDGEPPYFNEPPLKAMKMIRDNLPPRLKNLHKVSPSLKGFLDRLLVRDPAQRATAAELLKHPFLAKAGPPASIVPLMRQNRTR
# UniProt Q96KB5: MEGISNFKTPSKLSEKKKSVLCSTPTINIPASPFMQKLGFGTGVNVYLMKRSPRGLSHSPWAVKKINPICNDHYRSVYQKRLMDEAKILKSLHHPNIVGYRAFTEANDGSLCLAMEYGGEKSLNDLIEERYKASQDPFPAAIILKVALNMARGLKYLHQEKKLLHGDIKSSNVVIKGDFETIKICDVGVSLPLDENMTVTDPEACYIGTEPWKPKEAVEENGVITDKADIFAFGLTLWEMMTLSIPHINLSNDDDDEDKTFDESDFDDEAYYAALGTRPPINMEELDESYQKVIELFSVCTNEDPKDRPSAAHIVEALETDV
# UniProt Q15118, whole entry, looked up: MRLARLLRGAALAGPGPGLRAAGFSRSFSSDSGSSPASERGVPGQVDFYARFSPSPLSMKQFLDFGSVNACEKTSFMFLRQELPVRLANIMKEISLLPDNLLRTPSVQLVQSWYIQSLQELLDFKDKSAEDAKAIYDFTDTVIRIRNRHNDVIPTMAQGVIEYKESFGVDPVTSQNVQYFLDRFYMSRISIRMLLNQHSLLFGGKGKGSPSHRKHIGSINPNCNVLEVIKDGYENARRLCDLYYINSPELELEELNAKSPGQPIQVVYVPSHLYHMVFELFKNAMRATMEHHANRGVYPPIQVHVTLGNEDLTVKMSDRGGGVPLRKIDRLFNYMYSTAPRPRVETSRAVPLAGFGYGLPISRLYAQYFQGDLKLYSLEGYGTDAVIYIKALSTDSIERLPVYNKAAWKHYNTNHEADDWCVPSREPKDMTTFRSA
# UniProt O15530: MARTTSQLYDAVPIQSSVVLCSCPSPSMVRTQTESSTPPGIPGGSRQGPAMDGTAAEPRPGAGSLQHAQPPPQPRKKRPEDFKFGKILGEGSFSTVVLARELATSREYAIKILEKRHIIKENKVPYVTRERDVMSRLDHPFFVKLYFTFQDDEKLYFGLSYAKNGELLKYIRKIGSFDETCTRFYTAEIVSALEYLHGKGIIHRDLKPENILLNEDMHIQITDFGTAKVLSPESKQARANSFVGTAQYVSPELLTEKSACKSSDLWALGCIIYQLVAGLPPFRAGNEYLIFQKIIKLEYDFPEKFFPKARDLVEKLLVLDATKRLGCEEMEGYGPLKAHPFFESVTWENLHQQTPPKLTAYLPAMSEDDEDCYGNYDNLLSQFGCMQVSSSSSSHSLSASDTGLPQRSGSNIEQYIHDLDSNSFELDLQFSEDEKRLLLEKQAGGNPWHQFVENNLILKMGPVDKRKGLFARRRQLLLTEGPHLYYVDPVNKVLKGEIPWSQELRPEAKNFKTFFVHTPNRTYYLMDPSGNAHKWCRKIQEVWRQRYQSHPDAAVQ
# UniProt P42356, whole entry, looked up: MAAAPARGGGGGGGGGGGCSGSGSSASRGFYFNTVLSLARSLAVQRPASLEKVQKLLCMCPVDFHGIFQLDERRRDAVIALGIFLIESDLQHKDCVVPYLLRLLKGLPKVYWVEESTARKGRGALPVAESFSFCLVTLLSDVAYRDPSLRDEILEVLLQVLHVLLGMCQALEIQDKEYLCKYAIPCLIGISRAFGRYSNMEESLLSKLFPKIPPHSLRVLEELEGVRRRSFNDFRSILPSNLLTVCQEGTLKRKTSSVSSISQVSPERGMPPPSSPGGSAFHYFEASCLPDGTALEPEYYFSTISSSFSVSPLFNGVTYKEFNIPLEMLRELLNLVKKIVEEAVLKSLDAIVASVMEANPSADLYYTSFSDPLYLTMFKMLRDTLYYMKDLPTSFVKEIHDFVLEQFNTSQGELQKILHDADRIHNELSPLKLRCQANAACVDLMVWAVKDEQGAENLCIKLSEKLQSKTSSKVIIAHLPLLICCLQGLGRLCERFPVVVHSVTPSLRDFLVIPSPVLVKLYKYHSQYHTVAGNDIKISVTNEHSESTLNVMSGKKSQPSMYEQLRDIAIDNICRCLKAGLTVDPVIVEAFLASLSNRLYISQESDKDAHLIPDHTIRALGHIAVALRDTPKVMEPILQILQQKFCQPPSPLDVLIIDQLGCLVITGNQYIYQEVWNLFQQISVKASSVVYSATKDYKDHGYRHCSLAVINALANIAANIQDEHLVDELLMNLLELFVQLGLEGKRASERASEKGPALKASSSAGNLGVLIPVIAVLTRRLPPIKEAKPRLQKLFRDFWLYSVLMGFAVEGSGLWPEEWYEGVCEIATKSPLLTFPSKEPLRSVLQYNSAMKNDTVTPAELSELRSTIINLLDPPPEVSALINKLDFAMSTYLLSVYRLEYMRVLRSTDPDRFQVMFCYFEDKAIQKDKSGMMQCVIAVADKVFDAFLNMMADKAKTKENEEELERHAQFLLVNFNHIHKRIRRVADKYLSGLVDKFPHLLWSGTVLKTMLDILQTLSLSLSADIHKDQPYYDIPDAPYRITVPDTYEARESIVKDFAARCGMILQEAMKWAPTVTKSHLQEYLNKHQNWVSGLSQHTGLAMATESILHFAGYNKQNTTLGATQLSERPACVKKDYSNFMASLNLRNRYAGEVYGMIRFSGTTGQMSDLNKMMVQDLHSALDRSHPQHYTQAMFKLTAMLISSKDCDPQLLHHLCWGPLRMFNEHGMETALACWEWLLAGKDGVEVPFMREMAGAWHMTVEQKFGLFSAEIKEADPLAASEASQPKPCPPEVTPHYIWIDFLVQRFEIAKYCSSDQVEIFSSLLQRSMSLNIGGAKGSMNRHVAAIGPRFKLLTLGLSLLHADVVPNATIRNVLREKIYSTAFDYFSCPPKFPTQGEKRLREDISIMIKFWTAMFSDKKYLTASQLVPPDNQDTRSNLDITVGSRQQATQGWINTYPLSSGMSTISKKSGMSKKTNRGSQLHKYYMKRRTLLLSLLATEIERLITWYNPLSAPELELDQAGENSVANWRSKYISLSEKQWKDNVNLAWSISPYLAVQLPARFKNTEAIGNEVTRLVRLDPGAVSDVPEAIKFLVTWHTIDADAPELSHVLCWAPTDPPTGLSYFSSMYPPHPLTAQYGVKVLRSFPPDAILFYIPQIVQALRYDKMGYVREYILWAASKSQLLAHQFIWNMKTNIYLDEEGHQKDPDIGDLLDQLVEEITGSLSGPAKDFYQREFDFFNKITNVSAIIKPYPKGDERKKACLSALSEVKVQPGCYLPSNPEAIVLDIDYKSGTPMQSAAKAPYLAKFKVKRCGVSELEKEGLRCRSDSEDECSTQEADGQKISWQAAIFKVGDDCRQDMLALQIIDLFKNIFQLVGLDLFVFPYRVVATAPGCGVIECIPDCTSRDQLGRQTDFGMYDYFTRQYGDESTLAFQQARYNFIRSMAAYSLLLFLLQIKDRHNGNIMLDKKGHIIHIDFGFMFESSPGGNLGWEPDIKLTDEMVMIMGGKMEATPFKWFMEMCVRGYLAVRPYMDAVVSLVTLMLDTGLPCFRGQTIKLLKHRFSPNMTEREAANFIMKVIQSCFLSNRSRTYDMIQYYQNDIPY
# UniProt Q14289, whole entry, looked up: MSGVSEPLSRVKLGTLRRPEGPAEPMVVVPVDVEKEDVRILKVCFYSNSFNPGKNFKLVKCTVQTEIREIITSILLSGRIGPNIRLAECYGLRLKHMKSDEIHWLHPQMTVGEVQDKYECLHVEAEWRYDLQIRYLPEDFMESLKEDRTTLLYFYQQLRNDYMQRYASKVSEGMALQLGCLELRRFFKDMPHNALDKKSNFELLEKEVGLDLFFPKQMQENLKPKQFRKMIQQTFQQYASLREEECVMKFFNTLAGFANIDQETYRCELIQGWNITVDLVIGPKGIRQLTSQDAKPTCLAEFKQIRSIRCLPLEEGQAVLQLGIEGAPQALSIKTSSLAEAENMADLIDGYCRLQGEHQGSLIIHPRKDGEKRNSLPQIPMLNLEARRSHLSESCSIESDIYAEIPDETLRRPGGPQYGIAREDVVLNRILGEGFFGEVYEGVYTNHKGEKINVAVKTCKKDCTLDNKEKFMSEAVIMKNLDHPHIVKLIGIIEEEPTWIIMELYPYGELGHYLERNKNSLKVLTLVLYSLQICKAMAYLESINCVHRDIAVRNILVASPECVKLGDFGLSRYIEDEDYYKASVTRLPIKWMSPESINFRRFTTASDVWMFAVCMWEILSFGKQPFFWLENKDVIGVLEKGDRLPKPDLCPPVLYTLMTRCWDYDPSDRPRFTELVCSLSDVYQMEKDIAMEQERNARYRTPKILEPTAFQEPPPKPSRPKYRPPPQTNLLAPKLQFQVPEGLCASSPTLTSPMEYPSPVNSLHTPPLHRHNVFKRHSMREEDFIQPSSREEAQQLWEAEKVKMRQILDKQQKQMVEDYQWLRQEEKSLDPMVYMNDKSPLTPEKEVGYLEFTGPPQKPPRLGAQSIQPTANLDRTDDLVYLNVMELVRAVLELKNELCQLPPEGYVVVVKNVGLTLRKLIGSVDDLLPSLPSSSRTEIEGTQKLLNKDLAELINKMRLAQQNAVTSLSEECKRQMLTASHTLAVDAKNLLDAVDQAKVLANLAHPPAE
# UniProt Q9BRS2: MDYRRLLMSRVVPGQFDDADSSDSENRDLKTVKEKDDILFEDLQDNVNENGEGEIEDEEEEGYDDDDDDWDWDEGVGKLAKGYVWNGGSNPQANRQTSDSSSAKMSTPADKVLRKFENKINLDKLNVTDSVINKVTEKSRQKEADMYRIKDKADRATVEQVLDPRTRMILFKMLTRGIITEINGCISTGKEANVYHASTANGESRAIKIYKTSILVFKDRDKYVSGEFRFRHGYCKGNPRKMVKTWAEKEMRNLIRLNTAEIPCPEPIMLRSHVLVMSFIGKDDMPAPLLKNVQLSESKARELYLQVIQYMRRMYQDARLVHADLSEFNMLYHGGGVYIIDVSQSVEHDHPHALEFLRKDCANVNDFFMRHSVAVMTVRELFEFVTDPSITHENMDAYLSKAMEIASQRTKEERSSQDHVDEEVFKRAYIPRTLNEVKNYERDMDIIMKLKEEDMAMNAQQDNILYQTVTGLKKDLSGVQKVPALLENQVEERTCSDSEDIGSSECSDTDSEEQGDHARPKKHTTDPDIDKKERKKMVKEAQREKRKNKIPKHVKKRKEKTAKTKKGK
# Where a name gives a salt, the structure may show the parent alone. Some of the results follow. Hit calls seldom repeat between salt and free forms of one compound.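 Kinases were expressed as nanoluciferase fusions in K562 cells and luminescence was read every 4 h between 2 and 18 h as percent of control, DMSO set to 100% and a positive control to 0%. A time point counts as decreased when the signal drops significantly (2 sigma). The hit call is the authors' own, does not follow from the count of time points alone, and its rule is not shown.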
# Columns and labels:
# Assay in all cases: number of time points (of 5) at which kinase-Nluc abundance scored as decreased, DMSO-normalised (count); higher = more persistent destabilization
# Conditions in all cases: K562; 2-18 h
# NTRK3 = NTRK3 (UniProt Q16288)
# PAK4 = PAK4 (UniProt O96013)
# PBK = PBK (UniProt Q96KB5)
# PDGFRB = PDGFRB (UniProt P09619)
# PDK1 = PDK1 (UniProt Q15118)
# PDPK1 = PDPK1 (UniProt O15530)
# PIK4CA = PIK4CA (UniProt P42356)
# PIK4CB = PIK4CB (UniProt Q9UBF8)
# PLK1 = PLK1 (UniProt P53350)
# PRKAA1 = PRKAA1 (UniProt Q13131)
# PRKCA = PRKCA (UniProt P17252)
# PTK2 = PTK2 (UniProt Q05397)
# PTK2B = PTK2B (UniProt Q14289)
# RAF1 = RAF1 (UniProt P04049)
# [1] = target: RAF1_S257L (clone: RAF1_mut) (UniProt P04049)
# RET = RET (UniProt P07949)
# [2] = target: RET_M918T (clone: RET_mut) (UniProt P07949)
# RIOK1 = RIOK1 (UniProt Q9BRS2)
# RIPK1 = RIPK1 (UniProt Q13546)
# RIPK2 = RIPK2 (UniProt O43353)
SMILES,number of time points (NTRK3),number of time points (PAK4),number of time points (PBK),number of time points (PDGFRB),number of time points (PDK1),number of time points (PDPK1),number of time points (PIK4CA),number of time points (PIK4CB),number of time points (PLK1),number of time points (PRKAA1),number of time points (PRKCA),number of time points (PTK2),number of time points (PTK2B),number of time points (RAF1),number of time points [1],number of time points (RET),number of time points [2],number of time points (RIOK1),number of time points (RIPK1),number of time points (RIPK2)
C[C@@]1(O)CCC[C@H]1n1c(=O)c(C(F)F)cc2cnc(NC3CCN(S(C)(=O)=O)CC3)nc21 (2.5 µM),1,0,0,3,0,1,0,0,0,0,0,0,0,0,1,0,3,0,3,0
COc1ccc([C@@H]2CC(=O)c3c(O)cc(O)cc3O2)cc1O [Hesperetin] (10 µM),0,0,0,0,0,0,0,0,0,0,0,0,0,0,0,0,0,0,0,0
COc1cc(C(N)=O)nc(-c2cccc(C#C[C@]3(O)CCN(C)C3=O)c2)c1 (10 µM),0,0,0,0,0,0,0,0,0,0,0,0,0,0,0,0,0,0,0,0
Nc1nccc(Oc2ccc(NC(=O)c3cn(COP(=O)(O)O)cc(-c4ccc(F)cc4)c3=O)cc2F)c1Cl (10 µM),0,0,0,3,0,1,0,0,0,1,0,0,0,0,2,0,0,2,0,3
O=C1Nc2nc(-c3c(O)cccc3OCC3CC3)cc([C@@H]3CCCNC3)c2CO1 [Bay 65-1942 (hydrochloride)] (10 µM),0,0,0,0,0,1,0,0,0,0,0,0,0,0,2,0,0,0,3,3
O=C(/C=C/c1ccc(O[C@@H]2O[C@H](CO)[C@@H](O)[C@H](O)[C@H]2O[C@@H]2OC[C@](O)(CO)[C@H]2O)cc1)c1ccc(O)cc1O [Isoliquiritin apioside] (10 µM),0,0,0,0,0,0,0,0,0,0,0,0,0,0,0,0,0,0,0,0
O=C1NC(=O)C(=Cc2ccc(-c3ccc(F)cc3)o2)S1 (stereo in doubt) (10 µM),0,0,0,0,0,0,0,0,0,0,0,0,0,2,0,0,0,0,0,0
Cc1cc(O)c(C(C)C)cc1N=O [Poloxime] (10 µM),0,0,0,3,0,0,0,0,0,0,0,0,0,0,2,0,0,1,2,0
C=C(CCC=C(C)C)[C@H]1CC[C@]2(C)[C@@H]1[C@H](O)C[C@@H]1[C@@]3(C)CC[C@H](O[C@@H]4O[C@H](CO)[C@@H](O)[C@H](O)[C@H]4O[C@@H]4O[C@H](CO)[C@@H](O)[C@H](O)[C@H]4O)C(C)(C)[C@@H]3CC[C@]12C [Ginsenoside Rk1] (10 µM),0,0,0,0,0,0,0,0,0,0,0,0,0,0,0,0,0,0,0,0
CC(C)(NS(=O)(=O)c1ccc2c(Cl)cnc(N=C(N)N)c2c1)C(=O)O (10 µM),0,0,0,0,0,0,0,0,0,0,0,0,0,0,0,0,0,0,0,0
COc1ccc(C2CC(c3ccccc3)=NN2c2ccc(S(N)(=O)=O)cc2)cc1 (stereo not given) (10 µM),0,0,0,0,0,0,0,0,0,0,0,0,0,0,0,0,0,0,0,0
OC(COc1ccc(C(F)(F)F)cc1)CN(Cc1ccccc1)Cc1ccccc1 (stereo not given) (2.5 µM),0,0,0,0,0,0,0,0,0,0,0,0,0,0,0,0,0,0,0,0
CCN(CC)S(=O)(=O)c1ccc(OC)c(N2CCN(C(=O)c3ccc(F)cc3C(F)(F)F)CC2)c1 (10 µM),0,0,0,0,0,0,0,0,0,0,0,0,0,0,0,0,0,0,0,0
Cn1cc(Nc2nccc(N3C[C@H]4CC[C@@H](C3)N4C(=O)[C@@H]3CC3(F)F)n2)cn1 (10 µM),0,0,0,0,0,0,0,0,0,0,0,0,0,0,0,0,0,0,0,0
O=C(/C=C/c1ccc(O)c(O)c1)c1ccc(O[C@@H]2O[C@H](CO)[C@@H](O)[C@H](O)[C@H]2O)c(O)c1O [Marein] (10 µM),0,0,0,0,0,0,0,0,0,0,0,0,0,0,0,0,0,0,0,0
CC1CCc2nc(N)c(C#N)c(-c3cccnc3)c2C1 (stereo not given) (10 µM),0,0,0,0,0,0,0,0,0,0,0,0,0,0,0,0,0,0,0,0
O=C(Nc1cc(Oc2cc(F)c(NC(=O)C3(C(=O)Nc4ccc(F)cc4)CC3)cc2F)ccn1)C1CC1 [Altiratinib] (10 µM),0,0,0,0,0,0,0,0,0,0,0,4,0,0,0,0,0,0,0,0
COc1cc2ncnc(Nc3cccc(Cl)c3)c2cc1OC (10 µM),0,0,0,0,0,0,0,0,0,0,0,0,0,0,0,0,0,0,0,0
CS(=O)(=O)c1ccc(-c2cnc(N)c(C(=O)Nc3ccccc3)n2)cc1 (10 µM),0,0,0,0,0,0,0,0,0,0,0,0,0,0,0,0,0,0,0,0
CC(C)(C)c1ccc(S(=O)(=O)Nc2ccc(-n3ccnc3)cc2)cc1 (10 µM),0,0,0,0,0,0,0,0,0,0,0,0,0,0,0,0,0,0,0,0
C=CC(=O)Nc1cccc(C)c1Nc1ncc2cc(-c3c(Cl)c(OC)cc(OC)c3Cl)ccc2n1 (2.5 µM),0,0,0,0,0,2,0,0,0,0,0,0,0,0,4,0,0,1,0,0
COc1cc2ncn(-c3cc(OCc4ccccc4S(C)(=O)=O)c(C#N)s3)c2cc1OC (10 µM),0,0,0,0,0,0,0,0,0,0,0,0,0,0,0,0,0,0,0,0

# Single records, as listed above. Order of values: number of time points (NTRK3) | number of time points (PAK4) | number of time points (PBK) | number of time points (PDGFRB) | number of time points (PDK1) | number of time points (PDPK1) | number of time points (PIK4CA) | number of time points (PIK4CB) | number of time points (PLK1) | number of time points (PRKAA1) | number of time points (PRKCA) | number of time points (PTK2) | number of time points (PTK2B) | number of time points (RAF1) | number of time points [1] | number of time points (RET) | number of time points [2] | number of time points (RIOK1) | number of time points (RIPK1) | number of time points (RIPK2)
# COc1cc2ncn(-c3cc(OCc4ccccc4S(C)(=O)=O)c(C#N)s3)c2cc1OC (10 µM) as listed: 0 | 0 | 0 | 0 | 0 | 0 | 0 | 0 | 0 | 0 | 0 | 0 | 0 | 0 | 0 | 0 | 0 | 0 | 0 | 0
# CCN(CC)S(=O)(=O)c1ccc(OC)c(N2CCN(C(=O)c3ccc(F)cc3C(F)(F)F)CC2)c1 (10 µM) as listed: 0 | 0 | 0 | 0 | 0 | 0 | 0 | 0 | 0 | 0 | 0 | 0 | 0 | 0 | 0 | 0 | 0 | 0 | 0 | 0
